According to paper PMC7878818:
These are yes or no findings as the source states them, for the method shown. Binding seen in cells or lysates may run through a third protein. Some results given as binding are weak or reduced against the parent protein; the word gives no strength.

Sequences of proteins named here, by UniProt entry; tags and fusion partners are left off.
UniProt Q9BUA3: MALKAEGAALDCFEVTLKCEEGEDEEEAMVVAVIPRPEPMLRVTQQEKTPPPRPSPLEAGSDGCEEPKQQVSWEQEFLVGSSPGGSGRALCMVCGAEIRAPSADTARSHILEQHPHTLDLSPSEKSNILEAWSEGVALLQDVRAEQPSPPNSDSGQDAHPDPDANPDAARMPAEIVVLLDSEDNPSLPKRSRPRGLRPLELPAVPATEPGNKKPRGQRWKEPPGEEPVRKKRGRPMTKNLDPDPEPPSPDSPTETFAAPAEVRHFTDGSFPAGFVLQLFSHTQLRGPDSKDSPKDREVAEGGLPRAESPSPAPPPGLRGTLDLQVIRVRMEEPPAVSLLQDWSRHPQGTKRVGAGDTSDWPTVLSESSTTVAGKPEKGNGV
UniProt Q99865: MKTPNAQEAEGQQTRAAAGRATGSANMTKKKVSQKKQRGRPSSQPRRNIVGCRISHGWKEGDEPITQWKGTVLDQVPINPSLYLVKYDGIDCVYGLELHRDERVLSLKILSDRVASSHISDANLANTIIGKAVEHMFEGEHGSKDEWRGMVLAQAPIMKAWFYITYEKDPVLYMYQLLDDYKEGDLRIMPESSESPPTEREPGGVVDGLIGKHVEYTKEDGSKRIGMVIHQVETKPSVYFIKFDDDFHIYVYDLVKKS
UniProt Q9BPZ2: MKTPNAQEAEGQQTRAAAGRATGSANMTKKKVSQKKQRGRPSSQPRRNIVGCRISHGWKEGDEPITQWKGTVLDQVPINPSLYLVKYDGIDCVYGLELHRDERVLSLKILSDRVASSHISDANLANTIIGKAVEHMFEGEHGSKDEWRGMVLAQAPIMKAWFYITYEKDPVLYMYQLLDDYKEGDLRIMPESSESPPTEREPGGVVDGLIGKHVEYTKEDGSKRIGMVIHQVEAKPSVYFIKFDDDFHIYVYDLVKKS
UniProt Q5JUX0: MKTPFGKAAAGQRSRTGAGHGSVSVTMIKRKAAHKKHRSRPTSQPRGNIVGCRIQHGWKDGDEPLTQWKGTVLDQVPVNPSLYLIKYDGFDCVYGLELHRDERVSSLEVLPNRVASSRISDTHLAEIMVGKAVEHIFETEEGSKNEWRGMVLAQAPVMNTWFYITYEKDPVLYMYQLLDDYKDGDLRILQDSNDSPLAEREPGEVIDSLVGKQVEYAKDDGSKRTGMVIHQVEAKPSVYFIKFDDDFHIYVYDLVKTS

Molecular target: C11orf84 (wild type, tagged, expressed in HEK293T cells) (human) (UniProt Q9BUA3)
Assay: co-IP; HEK293T co-transfected with Flag- and Myc-tagged plasmids; NP40 buffer (50 mM Tris pH 7.5, 150 mM NaCl, 1 mM EDTA, 1% NP40); anti-Flag M2 beads, 1 h; immunoblot

binding, binds:
Spindlin2A (from UniProt Q99865 1-258)
Spindlin2B (from UniProt Q9BPZ2 1-258)
Spindlin3 (from UniProt Q5JUX0 1-258)
